Experimental data: PubChem BioAssay AID540256 (National Center for Advancing Translational Sciences (NCATS), 2011)
The whole screen tested about 300,000 compounds, of which about 3,700 (1.2%) were called active. The inconclusive results got no clear call from the source; some entries with a clear call stand among them for comparison. The call rests on the fitted dose curve; tested in HEK293 cells. A potency beside an inconclusive call is a rough fit, not a confirmed value.

assay: qHTS for Inhibitors of binding or entry into cells for Lassa Virus; details: Lassa virus pseudotype entry inhibition, cell reporter; activity change, negative = inhibition: at 37.9 µM (top of the series) unless noted; further: nearly all actives have a fitted effect of over 50% in size
On the % scale 0 is the no-effect control and ±100 the full control effect; potency means the concentration at half of the fitted maximal effect.

Compound	activity change, negative = inhibition	Potency
CCN1/C(=C2\C(=O)N(C)C(=S)N2C)C=Cc2cc(C)ccc21	inactive: 1.1%	
COc1cccc(CNC(=O)C(NS(=O)(=O)c2ccc3c(c2)oc(=O)n3C)C(C)C)c1 (centres undefined)	inactive: 8.74% [at 46.1 µM]	
CCN1CCN(S(=O)(=O)Cc2ccccc2)CC1		inconclusive: 0.231 µM [activator, partial curve, poor fit]
Cc1ccccc1C(=O)Nc1ccccc1N1CCN(C(=O)c2ccccc2)CC1		inconclusive: 4.47 µM [inhibitor, full curve, poor fit]
Cc1cccc(N(C)C(=O)CN(C)S(=O)(=O)c2ccc3[nH]c4c(c3c2)CCCC4)c1		inconclusive: 10 µM [inhibitor, partial curve, poor fit]
Cc1ccc(S(=O)(=O)N2CCc3cc(C(=O)Nc4ccc(C)c(C)c4)ccc32)cc1	inactive: -1.28% [at 46.1 µM]	
O=c1cc(-c2ccccc2)nc2cc(-c3ccc(F)cc3)[nH]n12		inconclusive: 10 µM [inhibitor, partial curve, poor fit]
COc1ccc(S(=O)(=O)NCc2ccccn2)cc1OC		inconclusive: 35.5 µM [inhibitor, single point]
Cc1ccc(C(=O)NN=Cc2ccc3c(c2)OCO3)cc1	inactive: -14.1% [at 46.1 µM]	
O=C(c1ccc2c(=O)n(-c3ccccc3)c(=S)[nH]c2c1)N1CCCCC1		inconclusive: 10 µM [inhibitor, partial curve]
Cc1ccc(Cn2cc(/C=C(/C#N)C(=O)Nc3cccc(Cl)c3)c3ccccc32)cc1	inactive: -6.8% [at 46.1 µM]	
O=S(=O)(c1cccc(NC(=S)N2CCN(c3ccccc3)CC2)c1)C(F)F		inconclusive: 11.2 µM [inhibitor, partial curve, poor fit]
CN(C)/C=N/C(=S)Nc1ccccc1	inactive: 26.3%	
CCc1ccc2nc(N(CCCN(C)C)C(=O)c3ccc(S(=O)(=O)N(C)C4CCCCC4)cc3)sc2c1		inconclusive: 7.94 µM [inhibitor, partial curve, poor fit]
CCn1c(=O)n(CC)c2cc(N3CCCC3)c(NC(=O)c3ccccc3OC)cc21		inconclusive: 2.51 µM [inhibitor, full curve, poor fit]
COc1ccc(CNC(=O)CSc2ncc3c(n2)-c2cc(Cl)ccc2N(Cc2ccccc2)S3(=O)=O)cc1OC	inactive: 0.679% [at 46.1 µM]	
O=C(NCC1CCCO1)c1cc2ccccc2oc1=O (centres undefined)	inactive: -4.38% [at 46.1 µM]	
COc1ccc(C(=O)Nc2ccc(N3CCN(Cc4ccccc4)CC3)cc2)cc1	inactive: -3.68%	
CN1CCC(=NNC(=O)C(=O)Nc2ccccc2)CC1	inactive: 0.578%	
CCN(CC)CCN(C(=O)c1ccc2ccccc2c1)c1nc2ccc(F)cc2s1	inactive: 8.68% [at 46.1 µM]	
CC(c1nnc(SCC(=O)Nc2cccnc2Cl)n1Cc1ccccc1)N(C)C (centres undefined)		inconclusive: 7.94 µM [activator, partial curve, poor fit]
COc1cc(-c2nnc(CSc3nnc4nc(C)cc(C)n34)o2)cc(OC)c1OC		inconclusive: 12.6 µM [activator, partial curve, poor fit]

Taken from above.
For Potency, `COc1ccc(S(=O)(=O)NCc2ccccn2)cc1OC` is listed with inconclusive: 35.5 µM [inhibitor, single point]
For Potency, `O=C(c1ccc2c(=O)n(-c3ccccc3)c(=S)[nH]c2c1)N1CCCCC1` is listed with inconclusive: 10 µM [inhibitor, partial curve]

More structures follow.

Compound	activity change, negative = inhibition	Potency
CCc1ccc(N2C(=O)Cc3c2nc(N)c(C#N)c3N)cc1	inactive: 22.2% [at 14.3 µM]	
NC(=O)c1nsc(C(=O)N(c2ccccc2)C(C(=O)NC2CCCCC2)c2ccc(O)cc2)c1N (centres undefined)		inconclusive: 0.651 µM [inhibitor, partial curve, poor fit]
COc1ccc(OCC(=O)N2CCN(Cc3c[nH]c4ccccc34)CC2)cc1		inconclusive: 11.2 µM [inhibitor, partial curve, poor fit]
O=C(COc1ccc(Br)cc1)Nc1ccc(C(=O)Nc2ccccc2C(=O)O)cc1	inactive: -1.46%	
O=C(CCCc1nc(-c2ccc(Cl)cc2)no1)NC1CCCC1		inconclusive: 15.8 µM [inhibitor, partial curve, poor fit]
Cc1ccc(C(c2c(C)[nH][nH]c2=O)c2c(C)[nH][nH]c2=O)cc1		inconclusive: 1.26 µM [inhibitor, full curve, poor fit]
COc1cc2c(C(=O)Nc3ccc(C)cc3Br)cn(C)c(=O)c2cc1OC	inactive: 4.26% [at 46.1 µM]	
CCOC(=O)c1ccc(NC2=CC(c3ccc(O)c(OCC)c3)N(c3ccc(C(=O)OCC)cc3)C2=O)cc1 (centres undefined)	inactive: 9.83% [at 46.1 µM]	
CCOc1ccccc1NC(=O)c1sc2nc(-c3ccc(OC)cc3)ccc2c1N		inconclusive: 2.51 µM [activator, full curve]
C/C(=N\NC(=O)CCc1ccccc1)C1C(=O)c2ccccc2C1=O		inconclusive: 35.5 µM [inhibitor, single point]
CN(C(=O)CSc1nnc(-c2cccs2)n1C1CC1)C1CCS(=O)(=O)C1 (centres undefined)	inactive: -0.342% [at 46.1 µM]	
COC(=O)[C@H](CC(C)C)N(Cc1cc(OC)cc(OC)c1)S(=O)(=O)c1ccccc1Br		inconclusive: 35.3 µM [inhibitor, partial curve, poor fit]
CN1CCN(C(=O)c2cnn3c(C(F)F)cc(C4CC4)nc23)CC1		inconclusive: 0.316 µM [inhibitor, partial curve, poor fit]
CCCSc1nc2c(c(=O)n(C)c(=O)n2C)n1Cc1ccc(C)cc1		inconclusive: 35.5 µM [inhibitor, single point]
Cc1cc(C)c2nc(N(CCCN(C)C)C(=O)c3ccc(S(=O)(=O)N4CC(C)OC(C)C4)cc3)sc2c1 (centres undefined)		inconclusive: 1.26 µM [activator, single point]
CCCCNc1nc(Oc2ccc(OCCC)nn2)nc(N(C)C)n1	inactive: -4.61% [at 46.1 µM]	
COCCCNCCOCCSc1ccc(Cl)cc1	inactive: 10%	
COc1ccc(OC)c(CCNC(=O)CN2C(=O)COc3ccc(S(=O)(=O)N4CCC(C)CC4)cc32)c1	inactive: -13.2% [at 46.1 µM]	
COc1ccc(/C=N/NC(=O)c2nc(-c3ccccc3)cc(-c3ccccc3)n2)cc1OC		inconclusive: 14.1 µM [inhibitor, single point]
COc1ccc(Cn2nnnc2CN2CCC(c3nc4ccccc4s3)CC2)cc1		inconclusive: 13 µM [inhibitor, partial curve, poor fit]
CCCC(=O)NC(c1cccs1)c1cc([N+](=O)[O-])c2cccnc2c1O (centres undefined)		inconclusive: 0.316 µM [activator, partial curve, poor fit]
CCc1cccc(NC(=O)CCCN2C(=O)NC(C)(C)C2=O)c1		inconclusive: 5.62 µM [inhibitor, full curve]
